# Data taken from the supplement of paper PMC8728848.
# Some of the results follow.
# B1: R2-fiber (Pseudomonas aeruginosa), Q9S576 (protein)
# chain: HHHHHHKVAKDLVVSLAYQVRTEDGVLVDESPVSAPLDYLHGHGSLISGLETALEGHEVGDKFDVAVGANDAYGQYDENLVQRVPKDVFMGVDELQVGMRFLAETDQGPVPVEITAVEDDHVVVDGNHMLAGQNLKFNVEVVAIREATEEELAHGHVHGAHDHHHDHDHDGCCGGHGHDHGHEHGGEGCCGGKGNGGCGCHENLYFQGVTAGMALAATDIPGLDASKLVSGVLAEQRLPVFARGLATAVSNSSDPNTATVPLMLTNHANGPVAGRYFYIQSMFYPDQNGNASQIATSYNATSEMYVRVSYAANPSIREWLPWQRCDIGGSFTKEADGELPGGVNLDSMVTSGWWSQSFTAQAASGANYPIVRAGLLHVYAASSNFIYQTYQAYDGESFYFRCRHSNTWFPWRRMWHGGDFNPSDYLLKSGFYWNALPGKPATFPPSAHNHDVGQLTSGILPLARGGVGSNTAAGARSTIGAGVPATASLGASGWWRDNDTGLIRQWGQVTCPADADASITFPIPFPTLCLGGYANQTSAFHPGTDASTGFRGATTTTAVIRNGYFAQAVLSWEAFGR
# How the values were obtained:
# Assay in all cases: glycan array binding signal (z-score within array); higher = stronger binding
# Conditions in all cases: glycan notation: IUPAC condensed, linker removed
# [1] = target: Gal(b1-4)GalNAc(b1-3)[Fuc(a1-2)]Gal(b1-4)GlcNAc
# In short: (§1)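 Negative Z-scores can be read as non-binding. The Z-score is calculated within each array and then averaged across arrays of one protein sequence at different concentrations or buffers and across linkers. Arrays, 3228 in all, were curated from the Consortium for Functional Glycomics database and kept only where the protein sequence was available.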
# [2] = target: Gal(b1-4)Glc
# In short: as §1
# [3] = target: Gal(b1-4)Glc6S
# In short: as §1
# [4] = target: Gal(b1-4)GlcNAc
# In short: as §1
# [5] = target: Gal(b1-4)GlcNAc(a1-6)Gal(b1-4)GlcNAc
# In short: as §1
# [6] = target: Gal(b1-4)GlcNAc(b1-2)Man
# In short: as §1
# [7] = target: Gal(b1-4)GlcNAc(b1-2)Man(a1-3)Man(b1-4)GlcNAc(b1-4)GlcNAc
# In short: as §1
# [8] = target: Gal(b1-4)GlcNAc(b1-2)Man(a1-3)[Gal(b1-4)GlcNAc(b1-2)Man(a1-6)]Man(b1-4)GlcNAc(b1-4)GlcNAc
# In short: as §1
# [9] = target: Gal(b1-4)GlcNAc(b1-2)Man(a1-3)[Gal(b1-4)GlcNAc(b1-2)Man(a1-6)]Man(b1-4)GlcNAc(b1-4)[Fuc(a1-6)]GlcNAc
# In short: as §1
# [10] = target: Gal(b1-4)GlcNAc(b1-2)Man(a1-3)[Gal(b1-4)GlcNAc(b1-2)Man(a1-6)][Gal(b1-4)GlcNAc(b1-4)]Man(b1-4)GlcNAc(b1-4)[Fuc(a1-6)]GlcNAc
# In short: as §1
# [11] = target: Gal(b1-4)GlcNAc(b1-2)Man(a1-3)[Gal(b1-4)GlcNAc(b1-2)Man(a1-6)][GlcNAc(b1-4)]Man(b1-4)GlcNAc(b1-4)[Fuc(a1-6)]GlcNAc
# In short: as §1
# [12] = target: Gal(b1-4)GlcNAc(b1-2)Man(a1-3)[GlcNAc(b1-2)Man(a1-6)]Man(b1-4)GlcNAc(b1-4)GlcNAc
# In short: as §1
# [13] = target: Gal(b1-4)GlcNAc(b1-2)Man(a1-3)[GlcNAc(b1-4)][Gal(b1-4)GlcNAc(b1-2)Man(a1-6)]Man(b1-4)GlcNAc(b1-4)GlcNAc
# In short: as §1
# [14] = target: Gal(b1-4)GlcNAc(b1-2)Man(a1-3)[Man(a1-6)]Man(b1-4)GlcNAc(b1-4)GlcNAc
# In short: as §1
# [15] = target: Gal(b1-4)GlcNAc(b1-2)Man(a1-6)Man(b1-4)GlcNAc(b1-4)GlcNAc
# In short: as §1
# [16] = target: Gal(b1-4)GlcNAc(b1-2)Man(a1-6)[GlcNAc(b1-2)Man(a1-3)]Man(b1-4)GlcNAc(b1-4)GlcNAc
# In short: as §1
# [17] = target: Gal(b1-4)GlcNAc(b1-2)Man(a1-6)[Man(a1-3)]Man(b1-4)GlcNAc(b1-4)GlcNAc
# In short: as §1
# [18] = target: Gal(b1-4)GlcNAc(b1-2)[Gal(b1-4)GlcNAc(b1-4)]Man(a1-3)[Gal(b1-4)GlcNAc(b1-2)Man(a1-6)]Man(b1-4)GlcNAc(b1-4)GlcNAc
# In short: as §1
# [19] = target: Gal(b1-4)GlcNAc(b1-2)[Gal(b1-4)GlcNAc(b1-4)]Man(a1-3)[Gal(b1-4)GlcNAc(b1-2)[Gal(b1-4)GlcNAc(b1-6)]Man(a1-6)]Man(b1-4)GlcNAc(b1-4)GlcNAc
# In short: as §1
# [20] = target: Gal(b1-4)GlcNAc(b1-2)[Gal(b1-4)GlcNAc(b1-4)]Man(a1-3)[GlcNAc(b1-4)][Gal(b1-4)GlcNAc(b1-2)Man(a1-6)]Man(b1-4)GlcNAc(b1-4)GlcNAc
# In short: as §1
# [21] = target: Gal(b1-4)GlcNAc(b1-2)[Gal(b1-4)GlcNAc(b1-4)]Man(a1-3)[GlcNAc(b1-4)][Gal(b1-4)GlcNAc(b1-2)[Gal(b1-4)GlcNAc(b1-6)]Man(a1-6)]Man(b1-4)GlcNAc(b1-4)GlcNAc
# In short: as §1
# [22] = target: Gal(b1-4)GlcNAc(b1-2)[Gal(b1-4)GlcNAc(b1-6)]Man(a1-6)[Gal(b1-4)GlcNAc(b1-2)Man(a1-3)]Man(b1-4)GlcNAc(b1-4)GlcNAc
# In short: as §1
# [23] = target: Gal(b1-4)GlcNAc(b1-2)[Gal(b1-4)GlcNAc(b1-6)]Man(a1-6)[Gal(b1-4)GlcNAc(b1-2)Man(a1-3)]Man(b1-4)GlcNAc(b1-4)[Fuc(a1-6)]GlcNAc
# In short: as §1
# [24] = target: Gal(b1-4)GlcNAc(b1-2)[Gal(b1-4)GlcNAc(b1-6)]Man(a1-6)[GlcNAc(b1-4)][Gal(b1-4)GlcNAc(b1-2)Man(a1-3)]Man(b1-4)GlcNAc(b1-4)GlcNAc
# In short: as §1
# [25] = target: Gal(b1-4)GlcNAc(b1-2)[Gal(b1-4)GlcNAc(b1-6)]Man(a1-6)[GlcNAc(b1-4)][Gal(b1-4)GlcNAc(b1-2)[Gal(b1-4)GlcNAc(b1-4)]Man(a1-3)]Man(b1-4)GlcNAc(b1-4)[Fuc(a1-6)]GlcNAc
# In short: as §1
# [26] = target: Gal(b1-4)GlcNAc(b1-3)Gal(b1-3)GalNAc
# In short: as §1
# [27] = target: Gal(b1-4)GlcNAc(b1-3)Gal(b1-3)GlcNAc
# In short: as §1
# [28] = target: Gal(b1-4)GlcNAc(b1-3)Gal(b1-4)Glc
# In short: as §1
# [29] = target: Gal(b1-4)GlcNAc(b1-3)Gal(b1-4)GlcNAc
# In short: as §1
# [30] = target: Gal(b1-4)GlcNAc(b1-3)Gal(b1-4)GlcNAc(b1-2)Man(a1-3)[Gal(b1-4)GlcNAc(b1-3)Gal(b1-4)GlcNAc(b1-2)Man(a1-6)]Man(b1-4)GlcNAc(b1-4)GlcNAc
# In short: as §1
binder,measurement,setting,value
B1,glycan array binding signal (z-score),[1],-0.381
same,glycan array binding signal (z-score),[2],-0.006
same,glycan array binding signal (z-score),[3],-0.602
same,glycan array binding signal (z-score),[4],0.253
same,glycan array binding signal (z-score),[5],-0.589
same,glycan array binding signal (z-score),[6],-0.027
same,glycan array binding signal (z-score),[7],-0.479
same,glycan array binding signal (z-score),[8],0.253
same,glycan array binding signal (z-score),[9],0.285
same,glycan array binding signal (z-score),[10],0.179
same,glycan array binding signal (z-score),[11],-1.28
same,glycan array binding signal (z-score),[12],0.11
same,glycan array binding signal (z-score),[13],-0.196
same,glycan array binding signal (z-score),[14],-0.052
same,glycan array binding signal (z-score),[15],-0.17
same,glycan array binding signal (z-score),[16],0.217
same,glycan array binding signal (z-score),[17],0.505
same,glycan array binding signal (z-score),[18],-1.04
same,glycan array binding signal (z-score),[19],-0.915
same,glycan array binding signal (z-score),[20],0.23
same,glycan array binding signal (z-score),[21],-0.104
same,glycan array binding signal (z-score),[22],-0.47
same,glycan array binding signal (z-score),[23],0.885
same,glycan array binding signal (z-score),[24],0.562
same,glycan array binding signal (z-score),[25],0.463
same,glycan array binding signal (z-score),[26],-0.99
same,glycan array binding signal (z-score),[27],0.042
same,glycan array binding signal (z-score),[28],-0.479
same,glycan array binding signal (z-score),[29],-0.391
same,glycan array binding signal (z-score),[30],1.32

# As a working copy, some entries already given:
binder,measurement,setting,value
B1,glycan array binding signal (z-score),[12],0.11
same,glycan array binding signal (z-score),[13],-0.196
